Source: patent US5698672A, “Synthetic calcitonin mimetics” (ZymoGenetics, Inc., priority 1995, dated 1997)
Not every detail of the peptide structures is certain; ends, links or a residue may be inferred.

Sequences of proteins named here, by UniProt entry; tags and fusion partners are left off.
UniProt A0A3Q0D7K7, entry or part of it: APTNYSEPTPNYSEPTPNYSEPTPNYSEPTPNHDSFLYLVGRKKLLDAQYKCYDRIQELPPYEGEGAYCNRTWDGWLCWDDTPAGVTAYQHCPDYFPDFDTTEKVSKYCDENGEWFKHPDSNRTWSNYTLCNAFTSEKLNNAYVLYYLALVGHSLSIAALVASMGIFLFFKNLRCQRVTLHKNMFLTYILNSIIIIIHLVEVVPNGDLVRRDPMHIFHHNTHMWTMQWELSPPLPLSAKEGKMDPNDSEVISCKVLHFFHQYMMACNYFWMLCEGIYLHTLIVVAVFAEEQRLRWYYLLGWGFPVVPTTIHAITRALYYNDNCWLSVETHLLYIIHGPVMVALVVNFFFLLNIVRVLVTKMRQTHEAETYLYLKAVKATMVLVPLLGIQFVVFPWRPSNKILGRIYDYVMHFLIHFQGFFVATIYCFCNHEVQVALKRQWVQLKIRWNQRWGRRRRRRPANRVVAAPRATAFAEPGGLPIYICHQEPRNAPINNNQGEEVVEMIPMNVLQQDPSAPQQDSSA

Key:
[1] = molecular target: hamster calcitonin receptor (Mesocricetus auratus, UniProt A0A3Q0D7K7); experiment: CRE-luciferase induction in Boris/KZ10-3 cells (hamster calcitonin receptor)
[2] = test system: osteoclasts in mouse calvariae; experiment: Calvaria histology: osteoclast number and size; format: cell-based; conditions: histomorphometry, TRAP stain
Excerpt: To confirm the findings in the calvarial bone resorption assay employing calcium release from culture mouse calvariae, selected bones were fixed in 10% neutral buffered formalin and demineralized in 5% formic acid with 5% formalin. The bones were dehydrated through an ascending series of ethanol concentrations, infiltrated in glycol methacrylate, and embedded using a JB-4 embedding kit (PolySciences, Warrington, Pa.) (Liu and Kalu, J. Bone Miner. Res., 5:973-82, 1990). Cross sections of calvariae cut at […] were obtained and stained for tartrate-resistant acid phosphatase (TRAP) activity and counterstained with methyl green and thionin for cell morphology (Liu and Kalu, J. Bone. Miner. Res. 1990, supra). osteoclasts were identified by TRAP stain, multinucleation, large cell size, and irregular cell shape. The number of osteoclasts were counted from endocranial and ectocranial bone surfaces and expressed as number/mm perimeter. The size of all the osteoclasts counted was also measured using a Bone Morphometry program (Lui and Kalu, supra.; Bain et al., J. Bone Miner. Res. 8:435-42, 1993). […] This PTH-induced increase was suppressed by treatment with human calcitonin.
Calcitonin mimetic compounds were evaluated in a similar fashion for their ability to suppress PTH-induced increases in osteoclast number and size. Cell toxicity (or death) was also evaluated morphologically. […]

[3] = molecular target: T1, human calcitonin receptor (Homo sapiens, UniProt P30988); experiment: CRE-luciferase induction in Hollex-1 cells (BHK, human calcitonin receptor); format: cell-based; conditions: human calcitonin 0.001-1000 nM, range 10-25 fold
T1 construct: expressed in transfected cells; host or cells: BHK 570 derivative KZ10-20-48 (clone Hollex-1)
T1 sequence (P30988 25-474): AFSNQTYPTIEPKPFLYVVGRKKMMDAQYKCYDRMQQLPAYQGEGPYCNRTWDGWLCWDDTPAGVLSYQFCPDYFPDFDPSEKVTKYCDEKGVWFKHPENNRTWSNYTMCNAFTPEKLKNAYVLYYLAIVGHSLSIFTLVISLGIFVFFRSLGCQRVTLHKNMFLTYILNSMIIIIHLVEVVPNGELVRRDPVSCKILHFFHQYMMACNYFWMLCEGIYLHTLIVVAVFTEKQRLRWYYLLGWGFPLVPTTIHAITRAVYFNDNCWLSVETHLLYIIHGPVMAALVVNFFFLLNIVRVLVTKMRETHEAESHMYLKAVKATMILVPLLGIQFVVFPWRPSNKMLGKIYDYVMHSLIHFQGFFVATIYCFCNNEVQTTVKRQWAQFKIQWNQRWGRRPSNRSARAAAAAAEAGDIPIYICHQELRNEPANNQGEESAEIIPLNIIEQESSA

With `CC[C@H](C)[C@H](NC(=O)[C@H](C)NC(=O)[C@@H](NC(=O)[C@H](CCC(N)=O)NC(=O)[C@@H]1CCCN1C(=O)[C@H](Cc1ccccc1)NC(=O)[C@@H](NC(=O)[C@H](Cc1c[nH]cn1)NC(=O)[C@H](Cc1ccccc1)NC(=O)[C@H](CCCCN)NC(=O)[C@H](CC(N)=O)NC(=O)[C@H](Cc1ccccc1)NC(=O)[C@H](CC(=O)O)NC(=O)[C@H](CCC(N)=O)NC(=O)[C@@H](NC(=O)[C@H](Cc1ccc(O)cc1)NC(=O)[C@@H](NC(=O)CNC(=O)[C@H](CC(C)C)NC(=O)[C@H](CCSC)NC(=O)[C@@H]1CSSC[C@H](N)C(=O)NCC(=O)N[C@@H](CC(N)=O)C(=O)N[C@@H](CC(C)C)C(=O)N[C@@H](CO)C(=O)N[C@@H]([C@@H](C)O)C(=O)N1)[C@@H](C)O)[C@@H](C)O)[C@@H](C)O)[C@@H](C)O)C(=O)NCC(=O)N[C@H](C(=O)NCC(=O)N[C@@H](C)C(=O)N1CCC[C@H]1C(N)=O)C(C)C` [human calcitonin] the induction of luciferase [1] was 30 fold, the “Effect on number and size of osteoclasts” value [2] was “suppressed” and the induction of luciferase [3] was 20 fold.
